This experiment has as its system CD2F1 mice, L1210 leukemia ip, survival T/C. The experiment in a line: NCI In Vivo Anticancer Drug Screen. Data for tumor model L1210 Leukemia (intraperitoneal) in CD2F1 (CDF1) mice. Particulars: higher T/C = longer survival. In outline: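 In this screen, transplantable tumors were grown in mice given either the compound or its vehicle. Results were expressed as the treated measurement relative to the control measurement.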

The mark [1] stands for this setting: T/C endpoint: mean survival time, dose: 100.0 mg/kg/injection, schedule: Q04DX002 (ip), vehicle: saline with Tween-80.
Setting [2] is: T/C endpoint: mean survival time, dose: 200.0 mg/kg/injection, schedule: Q04DX002 (ip), vehicle: saline with Tween-80.
The mark [3] stands for this setting: T/C endpoint: mean survival time, dose: 400.0 mg/kg/injection, schedule: Q04DX002 (ip), vehicle: saline with Tween-80.
Where [4] appears, read: T/C endpoint: mean survival time, dose: 25.0 mg/kg/injection, schedule: Q04DX002 (ip), vehicle: saline with Tween-80.
Where [5] appears, read: T/C endpoint: mean survival time, dose: 50.0 mg/kg/injection, schedule: Q04DX002 (ip), vehicle: saline with Tween-80.
[6] abbreviates: T/C endpoint: mean survival time, dose: 400.0 mg/kg/injection, schedule: Q04DX003 (ip), vehicle: saline with Tween-80.
Setting [7] is: T/C endpoint: mean survival time, dose: 12.5 mg/kg/injection, schedule: Q01DX005 (ip), vehicle: water.
Setting [8] is: T/C endpoint: mean survival time, dose: 50.0 mg/kg/injection, schedule: Q01DX005 (ip), vehicle: water.
The mark [9] stands for this setting: T/C endpoint: mean survival time, dose: 400.0 mg/kg/injection, schedule: Q01DX009 (ip), vehicle: saline with Tween-80.
[10] abbreviates: T/C endpoint: mean survival time, dose: 200.0 mg/kg/injection, schedule: Q01DX005 (ip), vehicle: water.

The list is a part of this screen's results and no random one: it gathers tests that were run many times, whatever their T/C, doses with no T/C, and many T/C values between a quarter and a half above the control. Other doses and runs of a compound stand elsewhere. T/C gives the treated animals as a percentage of the vehicle group. Some doses have a count of surviving animals in place of a T/C: the source holds a T/C of zero for them, seemingly a mark for toxic or unscored doses. Some doses without a T/C left all or most animals alive at the check, yet need not have been tolerated: the source hardly ever lists a survival T/C far under the control, and the zero likely stands for such cases as well. Survivors were counted at the toxicity check, usually on the fifth day, unless a day is given; later deaths do not show. Schedule codes are those of the source, read here as Q, the interval in days (D) or hours (H), X, the number of doses. Some entries were tested several times; the results are listed from low to high. Where survival is the endpoint, this PubChem deposit counts one and a half times the control or more as active, and values a quarter to a half above the control carry no call in these data; other NCI protocols may use other cut-offs. Some T/C values carry the count of animals alive at the toxicity check (mostly the fifth day); where none is given, no animal had died by that day. Brackets with × say how often a value occurs here.

In the case of `O=C(NC(C(=O)NC(C(=O)O)C1CC(Cl)=NO1)C1CC(Cl)=NO1)OCC1c2ccccc2-c2ccccc21` (stereo unspecified), the T/C was 137 % of control (T/C endpoint: mean survival time, dose: 3.12 mg/kg/injection, schedule: Q01DX009 (ip), vehicle: saline); 148 % of control (T/C endpoint: mean survival time, dose: 6.2 mg/kg/injection, schedule: Q01DX009 (ip), vehicle: saline); 146 % of control (T/C endpoint: mean survival time, dose: 6.25 mg/kg/injection, schedule: Q01DX009 (ip), vehicle: saline); 127 [5 of 6 alive] and 133 % of control (T/C endpoint: mean survival time, dose: 12.5 mg/kg/injection, schedule: Q01DX009 (ip), vehicle: saline). Also, the survivor count is, setting by setting: (T/C endpoint: mean survival time, dose: 25.0 mg/kg/injection, schedule: Q01DX009 (ip), vehicle: saline) 6 of 6; (T/C endpoint: mean survival time, dose: 50.0 mg/kg/injection, schedule: Q01DX009 (ip), vehicle: saline) 4 of 6; (T/C endpoint: mean survival time, dose: 100.0 mg/kg/injection, schedule: Q01DX009 (ip), vehicle: saline) 0 of 6.
Regarding `C(#CCNC1CCCCC1)CNC1CCCCC1`, the survivor count runs as follows: under setting [1], 0 of 3; under setting [2], 0 of 3; under setting [3], 0 of 3.
Take `N#CC(c1c[nH]c2ccccc12)N1CCOCC1` (stereo unspecified): the survivor count under setting [1] was 0 of 3.
For `O=C(C/C(=N\C(=S)Nc1cc(C(F)(F)F)ccc1Cl)NO)N1CCCC1`, for the setting “T/C endpoint: median survival time, dose: 100.0 mg/kg/injection, schedule: Q01DX009 (ip), vehicle: saline with Tween-80”, the T/C is 125 % of control. Further, the survivor count (T/C endpoint: median survival time, dose: 400.0 mg/kg/injection, schedule: Q01DX009 (ip), vehicle: saline with Tween-80) was 3 of 6 and 5 of 6.
As for `CCOC(=O)/C(C)=N\NC(=O)C(C)SC(C)C(=O)N/N=C(\C)C(=O)OCC` (stereo unspecified), the survivor count reads like this: (T/C endpoint: mean survival time, dose: 100.0 mg/kg/injection, schedule: Q04DX002 (ip), vehicle: Klucel (hydroxypropylcellulose) (HPC)) 0 of 3; (T/C endpoint: mean survival time, dose: 200.0 mg/kg/injection, schedule: Q04DX002 (ip), vehicle: Klucel (hydroxypropylcellulose) (HPC)) 0 of 3; (T/C endpoint: mean survival time, dose: 400.0 mg/kg/injection, schedule: Q04DX002 (ip), vehicle: Klucel (hydroxypropylcellulose) (HPC)) 0 of 3.
As for `CN(C)Cc1[c-]c(CN(C)C)ccc1.[Cl][Pt]`, the survivor count reads like this: (T/C endpoint: median survival time, dose: 6.25 mg/kg/injection, schedule: Q04DX003 (ip), vehicle: saline) 6 of 6; (T/C endpoint: median survival time, dose: 100.0 mg/kg/injection, schedule: Q04DX003 (ip), vehicle: saline) 4 of 6; (T/C endpoint: median survival time, dose: 200.0 mg/kg/injection, schedule: Q04DX003 (ip), vehicle: saline) 0 of 6.
As for `CCCCCCCCCCCCCCCC[N+](C)(C)CC#CCCl`, the survivor count reads like this: under setting [4], 2 of 3; under setting [5], 1 of 3; under setting [1], 0 of 3 and 1 of 3; under setting [2], 0 of 3; under setting [3], 0 of 3.
For `c1ccc2c(NC3=NCCO3)c3ccccc3nc2c1`, where the note is “T/C endpoint: mean survival time, dose: 50.0 mg/kg/injection, schedule: Q04DX003 (ip), vehicle: saline with Tween-80”, the survivor count is recorded as 0 of 6.
Turning to `O=C1CCCN1.O=C1CCCN1.[Br][Co][Br]`, the T/C (T/C endpoint: mean survival time, dose: 150.0 mg/kg/injection, schedule: Q01DX009 (ip), vehicle: saline) was 128 % of control. Also, the survivor count (T/C endpoint: mean survival time, dose: 300.0 mg/kg/injection, schedule: Q01DX009 (ip), vehicle: saline) is given as 0 of 6.
For the compound `CC(C)(C)C1CC=CCC1` (stereo unspecified), under setting [6], the survivor count is given as 0 of 6.
Turning to `CCCCC(O)C(=O)O` (stereo unspecified), the survivor count (T/C endpoint: mean survival time, dose: 300.0 mg/kg/injection, schedule: Q01DX001 (ip), vehicle: saline) is 3 of 6.
On to `CC(=O)CC(OC(C)=O)(C(F)(F)F)C(F)(F)F`, for which the survivor count is 2 of 3 (T/C endpoint: mean survival time, dose: 100.0 mg/kg/injection, schedule: Q04DX002 (ip), vehicle: saline); 1 of 6 (T/C endpoint: mean survival time, dose: 200.0 mg/kg/injection, schedule: Q04DX003 (ip), vehicle: Klucel (hydroxypropylcellulose) (HPC)); 0 of 6 (T/C endpoint: mean survival time, dose: 400.0 mg/kg/injection, schedule: Q04DX003 (ip), vehicle: Klucel (hydroxypropylcellulose) (HPC)).
In the case of `[Co+3].[NH-]CC(=O)O.[NH-]CC(=O)O.[NH-]CC(=O)O`, the survivor count is, setting by setting: under setting [1], 3 of 3; under setting [2], 3 of 3; under setting [3], 1 of 3. Also, the T/C under setting [3] was 130 % of control.
`O=C1C=C(c2ccccc2)C(O)(c2ccccc2)/C1=C/c1ccccc1` (stereo unspecified): the survivor count under setting [4] is 3 of 3, the survivor count under setting [5] is given as 3 of 3, the survivor count under setting [1] was 3 of 3 and the survivor count under setting [3] is given as 0 of 3.
As for `NCc1cn(C2OC(CO)C(O)C2O)c2ncnc(N)c12` (stereo unspecified), the survivor count is on record as 4 of 6 under setting [7]; 5 of 6 (T/C endpoint: mean survival time, dose: 25.0 mg/kg/injection, schedule: Q01DX005 (ip), vehicle: water); 0 of 6 under setting [8].
For the compound `ClCc1ccc(Cl)cc1`, the survivor count runs as follows: (T/C endpoint: mean survival time, dose: 200.0 mg/kg/injection, schedule: Q01DX001 (ip), vehicle: saline with Tween-80) 0 of 6; (T/C endpoint: mean survival time, dose: 400.0 mg/kg/injection, schedule: Q01DX001 (ip), vehicle: saline with Tween-80) 0 of 6.
Take `O=C(O)/C=C(/CC(=O)O)C(=O)O`: the survivor count (T/C endpoint: mean survival time, dose: 400.0 mg/kg/injection, schedule: Q04DX003 (ip), vehicle: saline) is 2 of 6.
With `C=CCCCCCCCCC(=O)N(CC#N)CC(C)C`, the survivor count under setting [9] was 1 of 6.
For `C[CH2][Sn]([Cl])([Cl])[Cl].Oc1ccccc1C=NCCN=Cc1ccccc1O`, the survivor count under setting [6] is 3 of 6.
In the case of `OCC1OC(n2cc(I)c3c2ncn2nnnc32)C(O)C1O` (stereo unspecified), the survivor count (T/C endpoint: mean survival time, dose: 6.25 mg/kg/injection, schedule: Q01DX005 (ip), vehicle: water) was 3 of 3; the survivor count under setting [7] was 3 of 3; the survivor count under setting [8] was 0 of 3; the survivor count (T/C endpoint: mean survival time, dose: 100.0 mg/kg/injection, schedule: Q01DX005 (ip), vehicle: water) is 0 of 3; the survivor count under setting [10] was 0 of 3.
`CN(Cc1ccccc1)Cc1ccccc1`: where the note is “T/C endpoint: mean survival time, dose: 400.0 mg/kg/injection, schedule: Q04DX002 (ip), vehicle: saline”, the survivor count is listed as 1 of 3.
For `N#C/C(=C(\N)c1ccccc1)c1ccccc1`, under “T/C endpoint: mean survival time, dose: 200.0 mg/kg/injection, schedule: Q01DX001 (ip), vehicle: Klucel (hydroxypropylcellulose) (HPC)”, the survivor count is listed as 3 of 3.
`CCSCCN1C(=O)C2C3CCC(O3)C2C1=O` (stereo unspecified): the survivor count under setting [3] is on record as 2 of 3.
`O=C(COc1ccccc1)NC(=S)Nc1ccc(Cl)c(Cl)c1`: the T/C was 90, 93 [5 of 6 alive], 94, 104 % of control under setting [5]; 92, 94, 98, 105, 131 % of control under setting [1]; 96 (2×), 104, 105 % of control under setting [2]. In addition, the survivor count runs as follows: under setting [2], 3 of 3; under setting [3], 0 of 3.
In the case of `O=P(O)(O)OCC1OC(n2cnc3c(NCc4ccco4)ncnc32)C(O)C1O` (stereo unspecified), the survivor count under setting [10] is given as 5 of 6.
Consider `O=C1NC(O)c2ccccc2O1` (stereo unspecified), for which, under setting [9], the T/C was 130 % of control [5 of 6 alive] and the survivor count is reported as 2 of 6.
For `NCCCCC(N)C(=O)O` (stereo unspecified), the survivor count is 1 of 3 (T/C endpoint: median survival time, dose: 12.5 mg/kg/injection, schedule: Q04DX002 (ip), vehicle: saline); 0 of 3 (T/C endpoint: median survival time, dose: 100.0 mg/kg/injection, schedule: Q04DX002 (ip), vehicle: saline); 0 of 3 (T/C endpoint: median survival time, dose: 200.0 mg/kg/injection, schedule: Q04DX002 (ip), vehicle: saline); 0 of 3 (T/C endpoint: median survival time, dose: 400.0 mg/kg/injection, schedule: Q04DX002 (ip), vehicle: saline).
Turning to `CCC(=O)Oc1ccc(C2N(Cc3ccc(N(C)C)cc3)CCCN2Cc2ccc(N(C)C)cc2)cc1`, the survivor count by setting is: (T/C endpoint: mean survival time, dose: 50.0 mg/kg/injection, schedule: Q01DX009 (ip), vehicle: saline with Tween-80) 6 of 6; (T/C endpoint: mean survival time, dose: 100.0 mg/kg/injection, schedule: Q01DX009 (ip), vehicle: saline with Tween-80) 4 of 6; under setting [6], 6 of 6.
